PubChem BioAssay AID1508588, Peter MacCallum Cancer Centre | 2020
In all, the deposit lists about 18,000 reagents; below is a part drawn at random. Of all reagents, 790 (4.4%) got an active call. 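Calls rest on a combination of fold-change classes in drug and vehicle arms, not all shown here.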

Aim: 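Which gene losses make BRAF-mutant melanoma cells more responsive to vemurafenib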 (primary screen)
Cell system: human WM266.4 melanoma cells (BRAF V600 mutant)
Reagents: siRNA pool against human genes, 40 nM
Timing: 96 h from transfection to read-out
Treatment: vemurafenib 300 nM (about IC25), added 48 h after transfection, for 48 h; comparison arm got DMSO vehicle only
Measurement: 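Ratios to non-targeting siRNA for cell gain, counted as DAPI nuclei after minus before drug and averaged over two replicates, and for absorbance-read medium lactate per cell; both binned into fold-change classes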
Scale: cell gain with vemurafenib: higher = more cell gain than with non-targeting siRNA; lactate per cell with vemurafenib: higher = more lactate made per cell
Rule for the call: 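Enhancement is called by pairing each knock-down's vehicle-arm and drug-arm fold-change classes for viability or glycolysis; which class combinations qualify is not given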
Calls: active = enhances vemurafenib effect; inactive = no enhancement seen

| target gene | cell gain with vemurafenib | lactate per cell with vemurafenib | Outcome |
| --- | --- | --- | --- |
| LRRC55 (leucine rich repeat containing 55) | 0.84 | 0.59 | inactive |
| HPS6 (HPS6 biogenesis of lysosomal organelles complex 2 subunit 3) | 0.78 | 0.97 | inactive |
| NXF5 (nuclear RNA export factor 5) | 0.43 | 1.12 | inactive |
| GFUS (GDP-L-fucose synthase) | 0.3 | 2.5 | inactive |
| BTNL8 (butyrophilin like 8) | 1.08 | 0.47 | inactive |
| UBE2H (ubiquitin conjugating enzyme E2 H) | 0.21 | 1.66 | inactive |
| SLC9D1 | 0.81 | 1.02 | inactive |
| M6PR (mannose-6-phosphate receptor, cation dependent) | 1.06 | 0.82 | inactive |
| ASIC5 (acid sensing ion channel subunit family member 5) | 0.88 | 1.05 | inactive |
| PIN1 (peptidylprolyl cis/trans isomerase, NIMA-interacting 1) | 0.54 | 1.82 | inactive |
| SLC15A1 | 0.65 | 1.25 | inactive |
| RAC2 (Rac family small GTPase 2) | 0.61 | 0.94 | inactive |
| SRRM3 (serine/arginine repetitive matrix 3) | 1.04 | 1.36 | inactive |
| CCDC190 (coiled-coil domain containing 190) | 1.07 | 1.08 | inactive |

5 entries from above, ordered by “lactate per cell with vemurafenib”, highest first:
| target gene | cell gain with vemurafenib | lactate per cell with vemurafenib | Outcome |
| --- | --- | --- | --- |
| PIN1 (peptidylprolyl cis/trans isomerase, NIMA-interacting 1) | 0.54 | 1.82 | inactive |
| SRRM3 (serine/arginine repetitive matrix 3) | 1.04 | 1.36 | inactive |
| SLC15A1 | 0.65 | 1.25 | inactive |
| CCDC190 (coiled-coil domain containing 190) | 1.07 | 1.08 | inactive |
| RAC2 (Rac family small GTPase 2) | 0.61 | 0.94 | inactive |

Further entries follow:
| target gene | cell gain with vemurafenib | lactate per cell with vemurafenib | Outcome |
| --- | --- | --- | --- |
| SUSD1 (sushi domain containing 1) | 0.54 | 0.63 | inactive |
| ZC3HC1 (zinc finger C3HC-type containing 1) | 0.54 | 0.64 | inactive |
| PRKACB (protein kinase cAMP-activated catalytic subunit beta) | 0.52 | 1.52 | inactive |
| WDR11 (WD repeat domain 11) | 0.54 | 1.25 | inactive |
| SPEM1 (spermatid maturation 1) | 0.31 | 1.08 | inactive |
| OR2F2 (olfactory receptor family 2 subfamily F member 2) | 0.73 | 0.64 | inactive |
| CBLN4 (cerebellin 4 precursor) | 0.26 | 1.17 | inactive |
| OR10W1 (olfactory receptor family 10 subfamily W member 1) | 0.39 | 1.18 | inactive |
| HAUS8 (HAUS augmin like complex subunit 8) | 0.88 | 1.07 | inactive |
| OR2S2 (olfactory receptor family 2 subfamily S member 2) | 0.62 | 1.02 | inactive |
| EFHD1 (EF-hand domain family member D1) | 0.76 | 1.09 | inactive |
| CHSY3 (chondroitin sulfate synthase 3) | 0.51 | 1.55 | inactive |
| ANKRD6 (ankyrin repeat domain 6) | 0.6 | 0.82 | inactive |
| CCDC85B (coiled-coil domain containing 85B) | 0.82 | 0.86 | inactive |
| GTF2H1 (general transcription factor IIH subunit 1) | 0.69 | 0.99 | inactive |
| MYB (MYB proto-oncogene, transcription factor) | 0.73 | 0.97 | inactive |
| SLC6A16 | 0.67 | 0.68 | inactive |
| LDHA (lactate dehydrogenase A) | 0.65 | 0.88 | inactive |
| ACVR2B (activin A receptor type 2B) | 0.63 | 1.29 | inactive |
| MRPS21 (mitochondrial ribosomal protein S21) | 0.26 | 1.08 | inactive |
